Data reported in article PMC12032945, “Estrogenic activity of E2-conjugated GLP-1 is mediated by intracellular endolysosomal acidification and estrone metabolism” (Molecular Metabolism, 2025).
Results are given in words; binding and its absence hold for the method and conditions named. In cells and extracts the contact can be indirect. Some binding calls cover weakened binding; strength is not graded here.

The chains behind the UniProt entries cited, without tags or fusion partners. Residues count along the entry.
UniProt P43220, residues 24-463: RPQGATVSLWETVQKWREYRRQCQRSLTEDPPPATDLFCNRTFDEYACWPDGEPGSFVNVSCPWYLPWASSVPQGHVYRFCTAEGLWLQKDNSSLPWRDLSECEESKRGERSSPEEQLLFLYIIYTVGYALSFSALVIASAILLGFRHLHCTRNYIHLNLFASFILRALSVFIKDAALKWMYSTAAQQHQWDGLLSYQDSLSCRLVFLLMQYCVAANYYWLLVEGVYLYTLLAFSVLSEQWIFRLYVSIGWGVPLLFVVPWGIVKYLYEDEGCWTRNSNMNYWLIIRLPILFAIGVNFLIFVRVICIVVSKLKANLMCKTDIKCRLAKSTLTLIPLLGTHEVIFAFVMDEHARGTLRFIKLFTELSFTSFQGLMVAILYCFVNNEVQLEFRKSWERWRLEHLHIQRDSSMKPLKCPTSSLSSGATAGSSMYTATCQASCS
UniProt P32121: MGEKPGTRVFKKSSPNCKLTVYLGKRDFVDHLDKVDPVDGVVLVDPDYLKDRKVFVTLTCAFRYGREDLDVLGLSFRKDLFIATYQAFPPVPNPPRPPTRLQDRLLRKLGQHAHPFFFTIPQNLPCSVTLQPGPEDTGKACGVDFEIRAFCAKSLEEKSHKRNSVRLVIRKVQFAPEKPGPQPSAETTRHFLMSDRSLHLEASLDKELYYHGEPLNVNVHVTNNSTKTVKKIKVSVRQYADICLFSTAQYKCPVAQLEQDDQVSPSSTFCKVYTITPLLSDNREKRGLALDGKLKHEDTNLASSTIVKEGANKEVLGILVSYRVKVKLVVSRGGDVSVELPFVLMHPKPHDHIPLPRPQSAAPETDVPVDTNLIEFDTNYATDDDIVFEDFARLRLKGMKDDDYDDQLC
UniProt P49407: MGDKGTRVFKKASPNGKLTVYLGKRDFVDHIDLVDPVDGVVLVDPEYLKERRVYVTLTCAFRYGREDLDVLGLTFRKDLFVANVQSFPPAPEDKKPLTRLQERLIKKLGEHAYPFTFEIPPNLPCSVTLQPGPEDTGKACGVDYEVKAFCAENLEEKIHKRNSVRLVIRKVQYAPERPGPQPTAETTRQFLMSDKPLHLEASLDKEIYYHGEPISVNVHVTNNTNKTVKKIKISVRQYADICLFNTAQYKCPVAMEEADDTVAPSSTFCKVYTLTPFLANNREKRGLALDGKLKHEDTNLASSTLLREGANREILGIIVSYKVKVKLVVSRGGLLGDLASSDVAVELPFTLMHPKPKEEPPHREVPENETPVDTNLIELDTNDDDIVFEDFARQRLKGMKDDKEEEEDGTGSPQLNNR

Target: Human GLP-1R-GFP (human) (UniProt P43220)
Test: FRET or BRET

Substance | binding
β-arrestin-2-Rluc8 (from UniProt P32121 1-409) | binds
β-arrestin-1-Rluc8 (from UniProt P49407 1-418) | binds
